Not every detail of the peptide structures is certain; ends, links or a residue may be inferred. Some of these results come from one statement about several compounds together. Where a SMILES comes first, the peptide text is derived from it. [ ]: non-standard residue; d: D form. The star is where a group is joined. dPhe(4-NO2) = N[C@H](Cc1ccc([N+](=O)[O-])cc1)C(=O)O; dPhe(4-Cl) = N[C@H](Cc1ccc(Cl)cc1)C(=O)O; dPhe(3-F) = N[C@H](Cc1cccc(F)c1)C(=O)O; dPhe(4-F) = N[C@H](Cc1ccc(F)cc1)C(=O)O; d2Nal = N[C@H](Cc1ccc2ccccc2c1)C(=O)O; dPhe(2-F) = N[C@H](Cc1ccccc1F)C(=O)O; dAgb = N=C(N)NCC[C@@H](N)C(=O)O; d2Thi = N[C@H](Cc1cccs1)C(=O)O; NH(4-picolyl) = c1cc(CN*)ccn1; dNle = CCCC[C@@H](N)C(=O)O; Morpholide = C1CN(*)CCO1; NHBn = c1ccc(CN*)cc1; X1 = C1CN(*)CCS1
Tests used:
[1] = target: T1, cloned human kappa (hKOR) receptor (Homo sapiens, UniProt P41145); assay type: binding; conditions: Ki MOR / Ki KOR
T1 construct: expressed in transfected cells; host or cells: HN9.10 (mouse hippocampal neuroblastoma), stably transfected

Sequences of proteins named here, by UniProt entry; tags and fusion partners are left off. A change or cut given only in a name is not applied to a line headed by its entry.
UniProt P41145: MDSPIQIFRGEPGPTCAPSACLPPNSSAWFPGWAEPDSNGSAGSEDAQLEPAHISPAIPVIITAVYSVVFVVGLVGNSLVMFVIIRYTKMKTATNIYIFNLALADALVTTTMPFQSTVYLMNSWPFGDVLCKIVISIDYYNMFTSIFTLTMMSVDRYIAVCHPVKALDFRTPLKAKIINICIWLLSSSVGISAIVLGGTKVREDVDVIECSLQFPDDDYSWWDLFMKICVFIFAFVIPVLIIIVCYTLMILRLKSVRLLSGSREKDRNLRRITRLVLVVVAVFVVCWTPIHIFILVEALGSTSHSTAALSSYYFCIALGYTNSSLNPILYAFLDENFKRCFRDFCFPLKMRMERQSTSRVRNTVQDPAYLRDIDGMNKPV

conscious male ICR mice = test: Mouse acetic acid writhing test (WT); assay type: in vivo; conditions: for duration of antinociceptive bioactivity (duration of action): result in words; for WT-ED50: i.v., 5 minutes before acetic acid i.p., writhes over 15 minutes; for % Antinociception 1 hr: 60 min pretreatment
Procedure: Selected peptides that are identified in Tables A-G have been further specifically subjected to in vivo testing for determination of duration of action of their opioid properties, and the results are reported in Table H hereinafter. The peptide numbers correspond to those in the earlier tables and the figures with regard to μ/K ratio are simply carried over for reference purposes. The in vivo testing is carried out using a mouse writhing test (WT) that is well-suited for determining the length of duration of antinociceptive biological activity. This test is described in detail in an article by G. A. Bentley et al., Br. J. Phamac., 73:325-332, 1981, and it employs conscious male ICR mice which are purchased from Harlan and which weigh between 20 and 30 grams. The mice are fasted for 12 to 16 hours prior to beginning the test. The nociceptive behavior, i.e. writhing, to be monitored is induced by the intraperitoneal (i.p.) administration of dilute acetic acid. 10 milliliters of 0.6% aqueous acetic acid is used per kg of body weight. Writhing is scored during the 15 minutes following acetic acid administration. In a first step, compounds are tested at 3 to 4 increasing doses, given by intravenous route, and at one unique pretreatment time (-5 minutes before acetic acid injection). […] In a second step, this submaximal effective dose for each specific peptide is administered at various pretreatment times (i.e. -5 minutes, -60 minutes, -120 minutes and -180 minutes) prior to the administration of the acetic acid in order to determine the duration of action. Throughout the test, a control group of mice are used which are administered only the vehicle without the candidate peptide. The number of writhes are counted over a 15-minute period, starting from the time of acetic acid injection, and bioactivity, i.e. antinociception, is expressed as a percentage, and is calculated as follows:
100×(writhes in control group-writhes in treated group)/writhes in
Values higher than 100% indicate greater antinociception than at the beginning of the experiment. It is felt that the opioid peptide should be effective to reduce writhing by at least about 25% at a time of 1 hour to be considered to have long duration of in vivo action.
In addition to using this test to determine duration of antinociceptive activity, it is also used to measure the in vivo biopotency (short term) of the peptide. This value is given in the table under the heading WT-ED50 in milligrams per kg of body weight. The value is a measure of the dosage necessary to reduce the number of writhes in the mouse being tested by 50% (as compared to a control mouse) over a period of 15 minutes.

[2] = submaximal effective dose i.v., percentage of the activity found at -5 min

Molecule: CCCC[C@@H](NC(=O)[C@@H](Cc1ccc([N+](=O)[O-])cc1)NC(=O)[C@H](N)Cc1ccc(F)cc1)C(=O)N[C@H](CCCNC(=N)N)C(=O)NCc1ccncc1 [Peptide 93, H-D-4Fpa-D-4Npa-D-Nle-D-Arg-NH(4Pic)] (H-[dPhe(4-F)][dPhe(4-NO2)][dNle][dR]-{NH(4-picolyl)})
- μ/κ Ratio (binding affinity for KOR versus MOR) [1]: 1,200
- duration of antinociceptive bioactivity (duration of action) (conscious male ICR mice): long duration of antinociceptive bioactivity

Molecule: CCCC[C@@H](NC(=O)[C@@H](Cc1ccccc1)NC(=O)[C@H](N)Cc1cccc(F)c1)C(=O)N[C@H](CCCNC(=N)N)C(=O)NCc1ccncc1 [Peptide 89, H-D-3Fpa-D-Phe-D-Nle-D-Arg-NH(4Pic)] (H-[dPhe(3-F)][dF][dNle][dR]-{NH(4-picolyl)})
- μ/κ Ratio (binding affinity for KOR versus MOR) [1]: 24,000
- duration of antinociceptive bioactivity (duration of action) (conscious male ICR mice): long duration of antinociceptive bioactivity

Molecule: CCCC[C@@H](NC(=O)[C@@H](Cc1ccccc1)NC(=O)[C@H](N)Cc1ccc(Cl)cc1)C(=O)N[C@H](CCCNC(=N)N)C(=O)NCc1ccncc1 [Peptide 92, H-D-4Cpa-D-Phe-D-Nle-D-Arg-NH(4Pic)] (H-[dPhe(4-Cl)][dF][dNle][dR]-{NH(4-picolyl)})
- μ/κ Ratio (binding affinity for KOR versus MOR) [1]: 2,900
- duration of antinociceptive bioactivity (duration of action) (conscious male ICR mice): long duration of antinociceptive bioactivity

Molecule: CCCC[C@@H](NC(=O)[C@@H](Cc1ccccc1)NC(=O)[C@H](N)Cc1ccc(F)cc1)C(=O)N[C@H](CCCNC(=N)N)C(=O)NCc1ccncc1 [Peptide 88, H-D-4Fpa-D-Phe-D-Nle-D-Arg-NH(4Pic)] (H-[dPhe(4-F)][dF][dNle][dR]-{NH(4-picolyl)})
- μ/κ Ratio (binding affinity for KOR versus MOR) [1]: 16,000
- duration of antinociceptive bioactivity (duration of action) (conscious male ICR mice): long duration of antinociceptive bioactivity

Molecule: CC(C)C[C@@H](NC(=O)[C@@H](Cc1ccc(Cl)cc1)NC(=O)[C@H](N)Cc1cccs1)C(=O)N[C@H](CCCNC(=N)N)C(=O)N1CCOCC1 [Peptide 59, H-D-Ala(2Thi)-D-4Cpa-D-Leu-D-Arg-Mor] (H-[d2Thi][dPhe(4-Cl)][dL][dR]-Morpholide)
- μ/κ Ratio (binding affinity for KOR versus MOR) [1]: 13,000
- WT-ED50 (conscious male ICR mice): 0.052 mg/kg
- duration of antinociceptive bioactivity (duration of action) (conscious male ICR mice): long duration of antinociceptive bioactivity
- % Antinociception 1 hr (conscious male ICR mice; [2]): 83.3%
- % Antinociception 2 hr (conscious male ICR mice; submaximal effective dose i.v., 120 min pretreatment, percentage of the activity found at -5 min): 59.7%

Molecule: CC(C)C[C@@H](NC(=O)[C@@H](Cc1ccccc1)NC(=O)[C@H](N)Cc1ccccc1)C(=O)N[C@H](CCCN)C(=O)NCCC[C@H](N)C(=O)O [Peptide 94, H-D-Phe-D-Phe-D-Leu-D-Orn-Dor]
- μ/κ Ratio (binding affinity for KOR versus MOR) [1]: 85,000
- duration of antinociceptive bioactivity (duration of action) (conscious male ICR mice): long duration of antinociceptive bioactivity

Molecule: CCCC[C@@H](NC(=O)[C@@H](Cc1ccccc1)NC(=O)[C@H](N)Cc1ccccc1F)C(=O)N[C@H](CCCNC(=N)N)C(=O)NCc1ccncc1 [Peptide 90, H-D-2Fpa-D-Phe-D-Nle-D-Arg-NH(4Pic)] (H-[dPhe(2-F)][dF][dNle][dR]-{NH(4-picolyl)})
- μ/κ Ratio (binding affinity for KOR versus MOR) [1]: 38,000
- duration of antinociceptive bioactivity (duration of action) (conscious male ICR mice): long duration of antinociceptive bioactivity

Molecule: CC(C)C[C@@H](NC(=O)[C@@H](Cc1ccc(Cl)cc1)NC(=O)[C@H](N)Cc1cccs1)C(=O)N[C@H](CCCNC(=N)N)C(=O)NCc1ccncc1 [Peptide 64, H-D-Ala(2Thi)-D-4Cpa-D-Leu-D-Arg-NH(4Pic)] (H-[d2Thi][dPhe(4-Cl)][dL][dR]-{NH(4-picolyl)})
- μ/κ Ratio (binding affinity for KOR versus MOR) [1]: 7,700
- WT-ED50 (conscious male ICR mice): 0.076 mg/kg
- duration of antinociceptive bioactivity (duration of action) (conscious male ICR mice): long duration of antinociceptive bioactivity

Molecule: CCCC[C@@H](NC(=O)[C@@H](Cc1ccccc1)NC(=O)[C@H](N)Cc1ccccc1)C(=O)N[C@H](CCNC(=N)N)C(=O)NCc1ccncc1 [Peptide 95, H-D-Phe-D-Phe-D-Nle-D-nArg-NH(4Pic)] (H-[dF][dF][dNle][dAgb]-{NH(4-picolyl)})
- μ/κ Ratio (binding affinity for KOR versus MOR) [1]: 16,000
- duration of antinociceptive bioactivity (duration of action) (conscious male ICR mice): long duration of antinociceptive bioactivity

Molecule: CC(C)C[C@@H](NC(=O)[C@@H](Cc1ccc2ccccc2c1)NC(=O)[C@H](N)Cc1cccs1)C(=O)N[C@H](CCCNC(=N)N)C(=O)N1CCOCC1 [Peptide 63, H-D-Ala(2Thi)-D-2Nal-D-Leu-D-Arg-Mor] (H-[d2Thi][d2Nal][dL][dR]-Morpholide)
- duration of antinociceptive bioactivity (duration of action) (conscious male ICR mice): long duration of antinociceptive bioactivity

Molecule: CC(C)C[C@@H](NC(=O)[C@@H](Cc1ccccc1)NC(=O)[C@H](N)Cc1ccccc1)C(=O)N[C@H](CCCN)C(=O)NCc1ccc(CC(N)C(=O)O)cc1 (stereo partly drawn) [Peptide 98, H-D-Phe-D-Phe-D-Leu-D-Orn-NH-Aeb]
- μ/κ Ratio (binding affinity for KOR versus MOR) [1]: 24,000
- duration of antinociceptive bioactivity (duration of action) (conscious male ICR mice): long duration of antinociceptive bioactivity

Molecule: CC(C)C[C@@H](NC(=O)[C@@H](Cc1ccc(Cl)cc1)NC(=O)[C@H](N)Cc1ccc(F)cc1)C(=O)N[C@H](CCCNC(=N)N)C(=O)N1CCOCC1 [Peptide 65, H-D-4Fpa-D-4Cpa-D-Leu-D-Arg-Mor] (H-[dPhe(4-F)][dPhe(4-Cl)][dL][dR]-Morpholide)
- μ/κ Ratio (binding affinity for KOR versus MOR) [1]: 11,000
- duration of antinociceptive bioactivity (duration of action) (conscious male ICR mice): long duration of antinociceptive bioactivity
- % Antinociception 1 hr (conscious male ICR mice; [2]): 39.5%

Molecule: CCCC[C@@H](NC(=O)[C@@H](Cc1ccccc1)NC(=O)[C@H](N)Cc1ccccc1)C(=O)N[C@H](CCCNC(=N)N)C(=O)N1CCSCC1 [Peptide 10, H-D-Phe-D-Phe-D-Nle-D-Arg-Tmo] (H-[dF][dF][dNle][dR]-X1)
- duration of antinociceptive bioactivity (duration of action) (conscious male ICR mice): long duration of antinociceptive bioactivity

Molecule: CC(C)C[C@@H](NC(=O)[C@@H](Cc1ccccc1)NC(=O)[C@H](N)Cc1ccccc1)C(=O)N[C@H](CCCNC(=N)N)C(=O)N1CCOCC1 [Peptide 26, H-D-Phe-D-Phe-D-Leu-D-Arg-Mor] (H-[dF][dF][dL][dR]-Morpholide)
- duration of antinociceptive bioactivity (duration of action) (conscious male ICR mice): long duration of antinociceptive bioactivity

Molecule: H-D-Phe-D-Phe-D-Lcu-D-Lys-NHPr [Peptide 48]
- duration of antinociceptive bioactivity (duration of action) (conscious male ICR mice): long duration of antinociceptive bioactivity

Molecule: CCCC[C@@H](NC(=O)[C@@H](Cc1ccccc1)NC(=O)[C@H](N)Cc1ccccc1)C(=O)N[C@H](CCCNC(=N)N)C(=O)NCc1ccccc1 [Peptide 14, H-D-Phe-D-Phe-D-Nle-D-Arg-NHBzl] (H-[dF][dF][dNle][dR]-NHBn)
- duration of antinociceptive bioactivity (duration of action) (conscious male ICR mice): long duration of antinociceptive bioactivity

Molecule: H-D-Phe-D-Phe-D-Lcu-D-Dbu-Mor [Peptide 53]
- duration of antinociceptive bioactivity (duration of action) (conscious male ICR mice): long duration of antinociceptive bioactivity

From patent publication US5965701A, “Kappa receptor opioid peptides” (priority 1997, dated 1999)
